39 molecules from PubChem BioAssay AID2685 (National Center for Advancing Translational Sciences (NCATS), 2010) can be followed below.

The assay in a line: qHTS Assay for Lipid Storage Modulators in Drosophila S3 Cells.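 As to cell number change: cells counted by Cell Tracker Red CMTPX staining in the red channel.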 The following applies: BODIPY lipid droplet fluorescence, 18-24 h; for cell number change: measured here: cell count max response, cells fed with added oleic acid. In short, it runs like this:
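Drosophila S3 cells loaded with oleic acid (400 uM, as added) and compounds at several concentrations; lipid droplets imaged by 488-nm laser-scanning cytometry, 500–530 nm intensity and object ratio to cell channel. Percent activity normalized to 20 uM Triacsin C.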
(Quantitative high-throughput screening tests each substance at several concentrations.)

The mark [1] stands for this setting: measured here: cell number channel AC50, cells fed with added oleic acid.
[2] abbreviates: measured here: lipid fluorescence (Fed channel) AC50, cells fed with added oleic acid.

The other results are listed elsewhere or left out. The main result of the screen is listed elsewhere. These columns were measured beside it and carry no call. Most of these compounds were active or inconclusive in the main read-out, so they are no random draw. Words in brackets tell the shape of the fitted curve; partial curves, single points and poor fits give uncertain potencies.

Consider `CC1(C)CC(=O)C=C(N2CCN(C3=CC(=O)CC(C)(C)C3)CC2)C1`, for which the cell number change is -12.5%. Also, the AC50 – broadly, the concentration at which the activity in the assay is half-maximal – under setting [1] is 6510 nM [falling, single point]. Take `COc1ccccc1-c1oc2ccccc2c1C#CC(C)(C)O`: the cell number change came to 3.04%. Besides, the AC50 under setting [1] was 164 nM [falling, full curve]. For the same molecule, the AC50 under setting [2] was 92 nM [falling, full curve]. Consider `COc1cc(C2C3C(=O)N(Cc4ccccc4)C(=O)C3ON2c2ccccc2)cc(OC)c1O` (stereo not drawn), for which the cell number change was -11.6%. For `CCC(C(=O)O)n1nnc(-c2ccc(OCc3ccccc3)c(OC)c2)n1` (stereo not drawn), the cell number change is -12.2%. The AC50 under setting [2] was 2910 nM [rising, partial curve]. As for `CC(Sc1nc(N)c(NC(=O)c2ccc(Br)o2)c(=O)[nH]1)C(=O)O` (stereo not drawn), the cell number change is -6.52%. In addition, the AC50 under setting [1] is 4.61 nM [falling, full curve, poor fit].

For the molecule `O=C(Cc1cc(=O)[nH][nH]1)N/N=C/C=C/c1ccccc1`, the cell number change was -12.1%. The AC50 under setting [2] was 146 nM [falling, full curve, poor fit]. Turning to `COc1ccc(CNC(=O)C(C)N2C(=O)NC(c3ccccc3)(c3ccccc3)C2=O)cc1` (stereo not drawn), the cell number change was -1.91%. The AC50 under setting [1] was 517 nM [falling, single point]. Also, under setting [2], the AC50 was 5170 nM [falling, full curve]. For the molecule `CN1CCO/C1=C(\C(Cl)=C(Cl)Cl)[N+](=O)[O-]`, the cell number change was determined as 31.3%. Also, the AC50 under setting [2] was 206 nM [rising, single point]. `O=C(c1ccc([N+](=O)[O-])s1)N1CCCc2ccccc21`: the cell number change came to 11.5%. Further, the AC50 under setting [2] was 5170 nM [rising, single point].

Regarding `CC(=O)Nc1c(O)nc(SCC(=O)Nc2c(C)cccc2C)[nH]c1=O`, the cell number change was -6.46%. Consider `Cc1c(C(=O)O)cccc1-c1ccc(/C=C2/NC(=O)N(c3ccccc3)C2=O)o1`, for which the cell number change was 7.92%. Further, the AC50 under setting [2] was 10.3 nM [rising, full curve, poor fit]. Consider `Nc1nc(SCC(=O)NCCCO)nc2sc3c(c12)CCC3`, for which the cell number change was -18%. Further, the AC50 under setting [2] was 23.1 nM [rising, full curve, poor fit]. Take `COc1cc(C2C(C(=O)c3ccc(C)o3)=C(O)C(=O)N2c2cc(C)on2)ccc1OCc1ccccc1` (stereo not drawn): the cell number change was -2.82%. Besides, the concentration at half-maximal activity (AC50) under setting [2] is 29100 nM [falling, single point].

In the case of `CCN(CC(=O)Nc1c(F)cccc1F)C(=O)c1ccc(S(=O)(=O)NCc2ccco2)cc1`, the cell number change is -23.1%. The AC50 under setting [2] was 29100 nM [rising, single point]. As for `COc1ccc(NC(=O)c2csc3c2CCCC3)cc1`, under setting [1], the AC50 was 1030 nM [rising, full curve, poor fit]. In the case of `O=C(CBr)c1ccc([N+](=O)[O-])c(CS(=O)(=O)c2ccc(Cl)cc2)c1`, the cell number change was -51%. Moreover, the AC50 under setting [1] was 29100 nM [falling, single point]. The AC50 under setting [2] is 29100 nM [falling, single point]. Turning to `COc1cc(OC)nc(NC(=O)CN2CCN(c3ccc(F)cc3)CC2)n1`, the cell number change worked out at 14.8%.

As for `CCn1c(/C=C/c2ccccc2[N+](=O)[O-])nc2ccccc2c1=O`, the cell number change worked out at 41.9%. Under setting [1], the AC50 is 461 nM [rising, full curve, poor fit]. Also, the AC50 under setting [2] is 29100 nM [rising, partial curve, poor fit]. Turning to `COc1ccc(CNC(=O)CCCNS(=O)(=O)c2cccc3nonc23)cc1`, the cell number change was -1.42%. Moreover, the AC50 under setting [2] was 29100 nM [rising, single point]. `Cc1ccc(C(=O)Nc2cccc(C(=O)N3CCN(C)CC3)c2)cc1`: the cell number change is -13.5%. Consider `O=C1CN(C(=O)COc2ccc([N+](=O)[O-])cc2Cl)c2ccccc2N1`, for which the cell number change is -51.1%. For the same molecule, under setting [1], the AC50 was 23100 nM [falling, partial curve]. Besides, the AC50 under setting [2] was 14600 nM [falling, partial curve]. `Cc1nc(SCCC(C)C)c([N+](=O)[O-])[nH]1`: the cell number change is 2.47%. Moreover, under setting [2], the AC50 is 731 nM [falling, full curve]. Consider `Oc1ccc(CN2CCc3ccccc3C2)c2cccnc12`, for which the cell number change is -22.3%.

As to `COc1cccc(CNC(=O)C(C)n2ccc3cc(S(=O)(=O)N4CCCCCC4)ccc32)c1` (stereo not drawn), the cell number change was -3.82%. As to `Cc1ccc(C)c(S(=O)(=O)NCCOC(=O)Nc2sc(=S)n(C)c2C)c1`, the cell number change is -12.1%.

On to `COc1ccc(C)cc1NC(=O)C1CCN(C(=O)C2CC(=O)N(c3ccc(C)cc3)C2)CC1` (stereo not drawn), for which the cell number change was determined as 25.6%. Further, under setting [2], the AC50 was 29100 nM [rising, partial curve, poor fit].

For `CCc1ccc(N2CCN(S(=O)(=O)CC34CCC(CC3=O)C4(C)C)CC2)cc1` (stereo not drawn), the cell number change is -4.56%. Moreover, under setting [1], the AC50 is 820 nM [rising, single point]. The AC50 under setting [2] is 580 nM [rising, single point]. For the molecule `Cc1ccc(S(=O)(=O)N(CC(O)CN2C(=O)NC(C)(C)C2=O)c2cccc([N+](=O)[O-])c2)cc1` (stereo not drawn), the cell number change amounted to 12.4%. On the same count and under the same terms, for `O=C(CCC(=O)N(CC(=O)NC1CCCC1)Cc1ccc2c(c1)OCO2)Nc1ccccn1` the value was -3.59%. For the molecule `C=CCNc1sc(C(=O)c2ccc(Br)s2)c(N)c1C#N`, the cell number change was 84.6%. The half-maximal activity concentration (AC50) under setting [1] is 1300 nM [rising, full curve]. In addition, the AC50 under setting [2] is 1030 nM [rising, full curve]. For `COc1ccc(C(=O)Nc2ccccc2-c2ccccc2)cc1Cl`, the cell number change was found to be 4.95%. Moreover, the AC50 under setting [2] is 92 nM [rising, partial curve, poor fit].

With `CC(NC(=O)C(=O)NN=C1CCCC1)c1ccccc1` (stereo not drawn), the cell number change worked out at 7.35%. Also, the half-maximal activity concentration (AC50) under setting [2] was 116 nM [falling, full curve, poor fit]. With `COc1ccc(C(=O)NNC(=O)CN(C)S(=O)(=O)c2ccc(Cl)cc2)c(OC)c1OC`, the AC50 under setting [2] is 20600 nM [falling, single point].

As for `Cc1cccc(C(=O)NCC(=O)OCC(=O)N2CC3(C)CC2CC(C)(C)C3)c1` (stereo not drawn), the cell number change was -0.157%. On the same count and under the same terms, for `COc1cccc(/C=C/c2n[nH]c(=O)c(C#N)c2C)c1` the value was -4.5%. For `Cc1ccc(NC(=O)CS(=O)CC(=O)Nc2ccc3c(c2)OCO3)cc1Cl` (stereo not drawn), the cell number change is 31.1%. Further, the AC50 under setting [1] is 1840 nM [rising, full curve, poor fit]. As for `COc1ccccc1C1C2=C(N=c3s/c(=C/c4cccc(OCC(=O)O)c4)c(=O)n31)c1ccccc1CC2` (stereo not drawn), the cell number change was 45.5%. For the same molecule, the half-maximal activity concentration (AC50) under setting [1] was 5800 nM [rising, partial curve]. As to `CCOC(=O)c1cc(=O)n(-c2ccc(Cl)cc2C)[nH]1`, the cell number change was 10.5%. In addition, the AC50 under setting [2] was 8200 nM [rising, partial curve]. As to `Cn1cc(S(=O)(=O)Nc2ccc(OC(F)(F)F)cc2)c(=O)n(C)c1=O`, the cell number change was -17.5%. Besides, the AC50 under setting [1] was 6510 nM [falling, single point]. In addition, the half-maximal activity concentration (AC50) under setting [2] is 6510 nM [falling, single point].
